Data taken from PMC4639896.
For at least one entry, the source does not settle the construct or the ends of the probe. At least one verdict was read from the data and is not stated in words by the source. Where a protein sequence is shown, tags need not be part of it.

Molecular target: T1, ABI5C153S (UniProt Q9SJN0)
T1 sequence (looked up, limits assumed): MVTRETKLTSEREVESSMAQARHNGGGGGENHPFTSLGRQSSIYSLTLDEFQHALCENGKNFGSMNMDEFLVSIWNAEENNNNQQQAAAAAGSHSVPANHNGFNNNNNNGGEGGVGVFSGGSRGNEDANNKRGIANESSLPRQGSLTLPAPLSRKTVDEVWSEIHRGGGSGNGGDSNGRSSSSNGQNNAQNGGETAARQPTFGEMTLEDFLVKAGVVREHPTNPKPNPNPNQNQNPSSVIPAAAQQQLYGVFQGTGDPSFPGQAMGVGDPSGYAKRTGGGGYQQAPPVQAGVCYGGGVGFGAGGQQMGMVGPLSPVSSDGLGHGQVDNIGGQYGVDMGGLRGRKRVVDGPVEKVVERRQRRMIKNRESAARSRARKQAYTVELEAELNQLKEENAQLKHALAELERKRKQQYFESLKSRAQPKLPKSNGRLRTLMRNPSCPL
Assay: EMSA
Settings: 10 mM Tris pH 8, 1 mM EDTA, 100 mM NaCl, 2 mM DTT (reducing), 10% glycerol, 0.5 ug poly(dI-dC), BSA, 10 ng probe, 1.5 ug protein, 30 min on ice, 6% PAGE 0.5x TBE, recombinant protein, protein details: N-terminal 6xHis (pET-28a+), label: biotin

Measured: binding result

GATCCTCTCGCGTACAATAAAGTCAGACACGTGGCATGTCACCAACGTAGCGTATGCGTA (double strand) [ABRE probe]
binds: non-reducing, 1 mM GSNO | non-reducing, no GSNO | reducing conditions (DTT)
